Test results as given in the supplement of paper PMC12067093, “Discovery and optimisation of a covalent ligand for TRIM25 and its application to targeted protein ubiquitination” (Chemical Science, 2025).
The list shows a part of the results.

By UniProt entry, the sequences of proteins in these tests, tags left out. Where a name states a change or a piece, a line headed by the entry shows the natural chain unless it says otherwise.
UniProt P49368: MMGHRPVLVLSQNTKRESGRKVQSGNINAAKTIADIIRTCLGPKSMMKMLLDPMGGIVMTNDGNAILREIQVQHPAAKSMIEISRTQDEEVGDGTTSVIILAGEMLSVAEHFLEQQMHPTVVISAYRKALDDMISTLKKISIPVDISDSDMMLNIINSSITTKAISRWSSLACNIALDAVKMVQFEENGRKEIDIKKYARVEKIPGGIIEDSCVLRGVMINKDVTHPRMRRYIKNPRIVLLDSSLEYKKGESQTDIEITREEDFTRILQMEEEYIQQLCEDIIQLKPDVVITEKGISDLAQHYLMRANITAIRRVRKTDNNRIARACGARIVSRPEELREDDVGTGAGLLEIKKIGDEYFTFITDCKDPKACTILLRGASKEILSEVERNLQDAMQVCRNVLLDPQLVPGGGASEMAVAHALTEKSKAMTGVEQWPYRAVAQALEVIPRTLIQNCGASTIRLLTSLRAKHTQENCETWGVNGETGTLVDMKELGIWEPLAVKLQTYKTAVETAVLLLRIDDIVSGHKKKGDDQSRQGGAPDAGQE
UniProt P40121: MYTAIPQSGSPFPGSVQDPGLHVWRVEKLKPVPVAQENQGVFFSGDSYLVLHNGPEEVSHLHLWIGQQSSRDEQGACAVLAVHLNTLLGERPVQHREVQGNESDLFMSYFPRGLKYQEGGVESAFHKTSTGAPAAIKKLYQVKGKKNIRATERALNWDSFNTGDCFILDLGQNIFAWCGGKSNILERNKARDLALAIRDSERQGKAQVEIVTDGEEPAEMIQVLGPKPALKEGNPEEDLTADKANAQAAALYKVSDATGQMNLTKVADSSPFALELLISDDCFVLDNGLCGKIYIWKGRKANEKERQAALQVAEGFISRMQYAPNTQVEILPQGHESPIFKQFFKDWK
UniProt P07384: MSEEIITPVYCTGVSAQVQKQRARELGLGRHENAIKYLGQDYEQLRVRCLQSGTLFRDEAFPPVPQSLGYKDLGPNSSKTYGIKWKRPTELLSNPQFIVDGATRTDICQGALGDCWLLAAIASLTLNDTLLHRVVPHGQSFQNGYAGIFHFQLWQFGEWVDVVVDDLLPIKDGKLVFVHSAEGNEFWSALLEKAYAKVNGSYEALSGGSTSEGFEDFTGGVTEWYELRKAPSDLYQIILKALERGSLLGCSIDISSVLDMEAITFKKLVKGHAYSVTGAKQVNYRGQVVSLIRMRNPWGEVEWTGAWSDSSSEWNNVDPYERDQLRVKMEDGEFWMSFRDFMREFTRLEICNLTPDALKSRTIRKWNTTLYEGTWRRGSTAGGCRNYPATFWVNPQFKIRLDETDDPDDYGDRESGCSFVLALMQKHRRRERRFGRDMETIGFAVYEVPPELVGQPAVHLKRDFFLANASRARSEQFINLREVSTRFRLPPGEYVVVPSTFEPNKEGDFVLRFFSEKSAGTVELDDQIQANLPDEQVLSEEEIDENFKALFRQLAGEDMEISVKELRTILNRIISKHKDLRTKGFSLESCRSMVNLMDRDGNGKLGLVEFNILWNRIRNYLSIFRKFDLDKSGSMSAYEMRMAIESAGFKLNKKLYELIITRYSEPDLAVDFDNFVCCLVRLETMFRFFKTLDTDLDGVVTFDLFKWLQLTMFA
UniProt P29466: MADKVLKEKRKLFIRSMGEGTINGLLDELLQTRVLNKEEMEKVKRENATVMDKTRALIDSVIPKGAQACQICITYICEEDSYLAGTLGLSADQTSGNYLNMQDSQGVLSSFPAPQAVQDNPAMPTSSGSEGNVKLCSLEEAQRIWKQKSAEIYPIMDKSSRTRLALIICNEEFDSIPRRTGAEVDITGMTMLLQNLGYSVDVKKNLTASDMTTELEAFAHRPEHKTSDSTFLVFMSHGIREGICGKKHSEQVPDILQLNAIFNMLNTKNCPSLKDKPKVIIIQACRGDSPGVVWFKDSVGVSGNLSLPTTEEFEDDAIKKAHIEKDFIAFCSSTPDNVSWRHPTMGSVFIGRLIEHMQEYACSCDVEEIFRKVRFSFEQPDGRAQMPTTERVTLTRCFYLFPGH
UniProt P16152: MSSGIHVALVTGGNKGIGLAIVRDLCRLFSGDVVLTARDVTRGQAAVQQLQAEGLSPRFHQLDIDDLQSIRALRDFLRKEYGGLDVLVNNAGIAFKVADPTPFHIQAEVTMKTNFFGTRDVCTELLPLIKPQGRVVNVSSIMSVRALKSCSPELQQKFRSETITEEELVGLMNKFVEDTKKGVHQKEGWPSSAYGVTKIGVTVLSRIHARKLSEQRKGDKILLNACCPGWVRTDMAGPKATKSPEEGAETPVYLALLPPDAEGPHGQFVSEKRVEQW
UniProt Q01518, whole entry, looked up: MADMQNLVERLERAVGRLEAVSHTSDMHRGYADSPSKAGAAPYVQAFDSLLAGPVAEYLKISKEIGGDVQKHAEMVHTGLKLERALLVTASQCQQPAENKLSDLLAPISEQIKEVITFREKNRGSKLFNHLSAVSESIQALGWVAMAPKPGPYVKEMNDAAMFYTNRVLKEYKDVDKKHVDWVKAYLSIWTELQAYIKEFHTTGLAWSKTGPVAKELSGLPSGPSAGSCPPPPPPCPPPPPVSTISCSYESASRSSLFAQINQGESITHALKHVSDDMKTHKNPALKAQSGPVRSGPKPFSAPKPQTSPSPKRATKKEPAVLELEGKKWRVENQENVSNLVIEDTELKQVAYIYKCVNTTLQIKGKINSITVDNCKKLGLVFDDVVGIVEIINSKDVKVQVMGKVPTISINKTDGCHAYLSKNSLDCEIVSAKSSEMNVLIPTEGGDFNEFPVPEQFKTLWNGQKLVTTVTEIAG
UniProt O60826, whole entry, looked up: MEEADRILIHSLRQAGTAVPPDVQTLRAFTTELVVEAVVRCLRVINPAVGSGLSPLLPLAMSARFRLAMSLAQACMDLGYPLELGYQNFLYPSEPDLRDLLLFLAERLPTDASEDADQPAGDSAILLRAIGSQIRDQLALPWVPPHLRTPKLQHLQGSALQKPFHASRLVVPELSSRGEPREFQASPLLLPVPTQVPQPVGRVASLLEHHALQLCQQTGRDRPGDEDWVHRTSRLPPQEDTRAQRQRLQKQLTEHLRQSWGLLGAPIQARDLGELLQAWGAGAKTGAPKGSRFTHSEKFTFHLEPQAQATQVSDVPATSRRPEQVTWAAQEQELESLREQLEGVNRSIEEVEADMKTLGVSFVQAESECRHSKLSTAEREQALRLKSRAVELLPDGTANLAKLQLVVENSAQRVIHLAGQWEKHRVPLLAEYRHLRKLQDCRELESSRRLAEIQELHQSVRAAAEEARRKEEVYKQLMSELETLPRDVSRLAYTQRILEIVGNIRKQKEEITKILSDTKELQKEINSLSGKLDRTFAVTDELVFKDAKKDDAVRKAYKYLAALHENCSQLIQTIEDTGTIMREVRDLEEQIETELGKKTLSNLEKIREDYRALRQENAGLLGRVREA
UniProt Q96LW7: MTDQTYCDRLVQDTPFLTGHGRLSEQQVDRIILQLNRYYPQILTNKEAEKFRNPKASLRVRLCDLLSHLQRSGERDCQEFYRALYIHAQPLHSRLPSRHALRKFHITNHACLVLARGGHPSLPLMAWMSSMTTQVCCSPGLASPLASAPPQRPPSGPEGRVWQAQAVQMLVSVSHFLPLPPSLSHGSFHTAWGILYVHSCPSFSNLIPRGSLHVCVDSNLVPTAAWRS
UniProt Q92851: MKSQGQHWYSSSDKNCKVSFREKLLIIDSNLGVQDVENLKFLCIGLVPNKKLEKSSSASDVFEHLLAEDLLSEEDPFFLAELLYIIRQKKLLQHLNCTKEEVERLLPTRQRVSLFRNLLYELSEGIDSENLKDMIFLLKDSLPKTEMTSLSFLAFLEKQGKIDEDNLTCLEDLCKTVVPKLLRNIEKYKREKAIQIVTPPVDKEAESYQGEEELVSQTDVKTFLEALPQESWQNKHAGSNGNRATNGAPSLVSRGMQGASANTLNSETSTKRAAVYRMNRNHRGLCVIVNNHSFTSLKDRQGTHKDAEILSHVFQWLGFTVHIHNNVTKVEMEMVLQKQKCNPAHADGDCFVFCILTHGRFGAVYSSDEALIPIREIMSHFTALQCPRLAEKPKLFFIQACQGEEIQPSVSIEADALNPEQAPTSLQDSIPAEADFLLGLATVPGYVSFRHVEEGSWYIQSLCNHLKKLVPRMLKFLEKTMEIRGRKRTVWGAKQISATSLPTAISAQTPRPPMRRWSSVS
UniProt P48643, whole entry, looked up: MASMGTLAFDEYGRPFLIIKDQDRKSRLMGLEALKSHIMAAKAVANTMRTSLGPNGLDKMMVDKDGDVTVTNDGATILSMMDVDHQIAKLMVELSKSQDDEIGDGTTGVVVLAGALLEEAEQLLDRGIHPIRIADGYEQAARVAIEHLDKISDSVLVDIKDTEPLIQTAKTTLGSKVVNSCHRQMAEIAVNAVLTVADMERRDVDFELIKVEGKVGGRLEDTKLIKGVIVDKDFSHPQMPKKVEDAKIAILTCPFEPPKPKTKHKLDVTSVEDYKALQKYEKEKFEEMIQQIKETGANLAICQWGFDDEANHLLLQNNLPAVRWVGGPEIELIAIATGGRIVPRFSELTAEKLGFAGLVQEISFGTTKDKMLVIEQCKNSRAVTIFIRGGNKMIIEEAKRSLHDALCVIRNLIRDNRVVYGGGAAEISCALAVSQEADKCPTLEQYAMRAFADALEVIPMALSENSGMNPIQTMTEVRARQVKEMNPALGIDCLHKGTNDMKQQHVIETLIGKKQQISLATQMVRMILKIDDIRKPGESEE
UniProt P42575: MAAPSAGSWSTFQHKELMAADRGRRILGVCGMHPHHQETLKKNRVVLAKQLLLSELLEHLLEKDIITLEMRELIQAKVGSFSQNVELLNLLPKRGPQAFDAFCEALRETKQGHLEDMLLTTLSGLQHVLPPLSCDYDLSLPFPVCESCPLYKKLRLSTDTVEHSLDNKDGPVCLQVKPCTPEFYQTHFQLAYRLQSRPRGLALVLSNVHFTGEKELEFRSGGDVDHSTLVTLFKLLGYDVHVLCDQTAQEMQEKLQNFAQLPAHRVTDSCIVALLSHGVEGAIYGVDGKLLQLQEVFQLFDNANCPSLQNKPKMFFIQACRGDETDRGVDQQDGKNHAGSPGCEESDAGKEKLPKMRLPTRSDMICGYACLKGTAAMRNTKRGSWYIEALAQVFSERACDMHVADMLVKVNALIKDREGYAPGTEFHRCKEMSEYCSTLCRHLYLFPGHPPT
UniProt Q9H257: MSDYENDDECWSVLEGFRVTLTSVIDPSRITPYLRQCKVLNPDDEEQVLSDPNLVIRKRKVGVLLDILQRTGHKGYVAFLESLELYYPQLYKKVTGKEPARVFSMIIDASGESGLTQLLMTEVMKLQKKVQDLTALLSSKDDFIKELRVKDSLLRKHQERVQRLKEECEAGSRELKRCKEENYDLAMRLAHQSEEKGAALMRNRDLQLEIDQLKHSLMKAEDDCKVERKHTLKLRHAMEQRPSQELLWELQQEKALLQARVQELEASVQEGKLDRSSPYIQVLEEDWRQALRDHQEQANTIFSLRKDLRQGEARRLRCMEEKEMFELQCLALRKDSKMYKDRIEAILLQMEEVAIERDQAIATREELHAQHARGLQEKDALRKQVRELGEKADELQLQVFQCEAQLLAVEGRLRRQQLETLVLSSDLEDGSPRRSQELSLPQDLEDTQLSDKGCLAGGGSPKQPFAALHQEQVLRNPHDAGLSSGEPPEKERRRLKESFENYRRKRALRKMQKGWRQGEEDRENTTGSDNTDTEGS
UniProt Q9Y6W3: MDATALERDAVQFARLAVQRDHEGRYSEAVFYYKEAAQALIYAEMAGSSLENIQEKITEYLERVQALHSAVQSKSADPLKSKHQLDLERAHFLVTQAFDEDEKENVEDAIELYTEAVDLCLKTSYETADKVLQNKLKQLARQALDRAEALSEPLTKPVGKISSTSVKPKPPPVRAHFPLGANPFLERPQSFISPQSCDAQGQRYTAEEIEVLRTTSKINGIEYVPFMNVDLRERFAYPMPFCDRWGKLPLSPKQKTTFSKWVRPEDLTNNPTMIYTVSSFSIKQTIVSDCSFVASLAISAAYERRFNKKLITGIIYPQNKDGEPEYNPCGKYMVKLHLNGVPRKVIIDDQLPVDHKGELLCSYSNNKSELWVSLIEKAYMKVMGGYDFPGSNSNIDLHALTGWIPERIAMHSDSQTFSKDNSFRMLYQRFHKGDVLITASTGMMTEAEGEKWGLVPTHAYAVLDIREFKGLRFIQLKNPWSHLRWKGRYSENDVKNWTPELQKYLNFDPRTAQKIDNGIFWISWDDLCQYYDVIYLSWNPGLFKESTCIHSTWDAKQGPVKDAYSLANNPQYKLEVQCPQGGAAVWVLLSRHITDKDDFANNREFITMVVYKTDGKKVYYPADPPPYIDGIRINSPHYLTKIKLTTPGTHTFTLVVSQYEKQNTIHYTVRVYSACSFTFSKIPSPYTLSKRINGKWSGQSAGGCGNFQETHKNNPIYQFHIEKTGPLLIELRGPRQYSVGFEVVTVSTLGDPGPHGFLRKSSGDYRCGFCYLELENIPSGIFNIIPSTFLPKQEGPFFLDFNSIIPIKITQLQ

Compound: Cc1cc(ccc1-c1ccccc1)C(=O)N1CCCN(CC1)C(=O)CCl [compound 10]
Assay: probe-labelled cysteine peptide fold change vs DMSO (competition) (log2 fold change); higher = less target engagement (more negative = stronger competition)
Conditions: THP-1, incubation time: 4 h
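Note: competitive profiling in live THP-1 cells: cysteine peptides tagged with an iodoacetamide desthiobiotin (IA-DTB) probe, intensity after compound treatment relative to DMSO-treated cells.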

Target: CCT3_P49368_366_IGDEYFTFITDCKDPK (UniProt P49368)
- probe-labelled cysteine peptide fold change (10 µM): -0.00752
- probe-labelled cysteine peptide fold change (50 µM): -0.866

Target: CAPG_P40121_77_DEQGACAVLAVHLNTLLGERPVQHR (UniProt P40121)
- probe-labelled cysteine peptide fold change (10 µM): 0.105
- probe-labelled cysteine peptide fold change (50 µM): 0.224

Target: CAPN1_P07384_590_GFSLESCR (UniProt P07384)
- probe-labelled cysteine peptide fold change (10 µM): 0.0856
- probe-labelled cysteine peptide fold change (50 µM): -0.0349

Target: CASP1_P29466_362_LIEHMQEYACSCDVEEIFRK (UniProt P29466)
- probe-labelled cysteine peptide fold change (10 µM): 0.0559
- probe-labelled cysteine peptide fold change (50 µM): -0.385

Target: CC2D1A_Q6P1N0_590_QQHEMCLNHSNQFTQLGNITETTK (UniProt Q6P1N0)
- probe-labelled cysteine peptide fold change (10 µM): -0.115
- probe-labelled cysteine peptide fold change (50 µM): 0.152

Target: CASP1_P29466_169_LALIICNEEFDSIPR (UniProt P29466)
- probe-labelled cysteine peptide fold change (10 µM): 0.166
- probe-labelled cysteine peptide fold change (50 µM): 0.0663

Target: CBR1_P16152_150_SCSPELQQK (UniProt P16152)
- probe-labelled cysteine peptide fold change (10 µM): -0.0783
- probe-labelled cysteine peptide fold change (50 µM): -0.0457

Target: CAP1_Q01518_427_NSLDCEIVSAK (UniProt Q01518)
- probe-labelled cysteine peptide fold change (10 µM): -0.184
- probe-labelled cysteine peptide fold change (50 µM): 0.00381

Target: CCDC22_O60826_369_TLGVSFVQAESECR (UniProt O60826)
- probe-labelled cysteine peptide fold change (10 µM): 0.0275
- probe-labelled cysteine peptide fold change (50 µM): 0.105

Target: CARD19_Q96LW7_77_DCQEFYR (UniProt Q96LW7)
- probe-labelled cysteine peptide fold change (10 µM): 0.0851
- probe-labelled cysteine peptide fold change (50 µM): 0.107

Target: CASP8_Q14790_287_NGTHLDAGALTTTFEELHFEIKPHDDCTVEQIYEILK (UniProt Q14790)
- probe-labelled cysteine peptide fold change (10 µM): -0.0677
- probe-labelled cysteine peptide fold change (50 µM): -0.185

Target: CASP10_Q92851_97_LLQHLNCTK (UniProt Q92851)
- probe-labelled cysteine peptide fold change (10 µM): -0.123
- probe-labelled cysteine peptide fold change (50 µM): -0.203

Target: CASP10_Q92851_169_IDEDNLTCLEDLCK (UniProt Q92851)
- probe-labelled cysteine peptide fold change (10 µM): -0.0609
- probe-labelled cysteine peptide fold change (50 µM): 0.0728

Target: CASP1_P29466_364_LIEHMQEYACSCDVEEIFR (UniProt P29466)
- probe-labelled cysteine peptide fold change (10 µM): -0.0222
- probe-labelled cysteine peptide fold change (50 µM): -0.0786

Target: CCT5_P48643_429_VVYGGGAAEISCALAVSQEADK (UniProt P48643)
- probe-labelled cysteine peptide fold change (10 µM): -0.0204
- probe-labelled cysteine peptide fold change (50 µM): 0.249

Target: CCT5_P48643_253_IAILTCPFEPPKPK (UniProt P48643)
- probe-labelled cysteine peptide fold change (10 µM): -0.0429
- probe-labelled cysteine peptide fold change (50 µM): -0.0751

Target: CASP2_P42575_173+179_DGPVCLQVKPCTPEFYQTHFQLAYR (UniProt P42575)
- probe-labelled cysteine peptide fold change (10 µM): -0.255
- probe-labelled cysteine peptide fold change (50 µM): -0.681

Target: CCT5_P48643_377_MLVIEQCK (UniProt P48643)
- probe-labelled cysteine peptide fold change (10 µM): 0.122
- probe-labelled cysteine peptide fold change (50 µM): 0.328

Target: CARD9_Q9H257_168_LKEECEAGSR (UniProt Q9H257)
- probe-labelled cysteine peptide fold change (10 µM): 0.296
- probe-labelled cysteine peptide fold change (50 µM): -0.0223

Target: CAPN7_Q9Y6W3_197_AHFPLGANPFLERPQSFISPQSCDAQGQR (UniProt Q9Y6W3)
- probe-labelled cysteine peptide fold change (10 µM): 0.0575
- probe-labelled cysteine peptide fold change (50 µM): -0.193

Target: CASP8_Q14790_236_GYCLIINNHNFAK (UniProt Q14790)
- probe-labelled cysteine peptide fold change (10 µM): -0.0568
- probe-labelled cysteine peptide fold change (50 µM): -0.12

Target: CBR1_P16152_122_DVCTELLPLIKPQGR (UniProt P16152)
- probe-labelled cysteine peptide fold change (10 µM): -0.0593
- probe-labelled cysteine peptide fold change (50 µM): -0.0026

Target: CCT3_P49368_366_KIGDEYFTFITDCK (UniProt P49368)
- probe-labelled cysteine peptide fold change (10 µM): 0.221
- probe-labelled cysteine peptide fold change (50 µM): -0.148
